Drawing on PMC7610265, this text covers binding for 6 molecules.

The chains behind the UniProt entries cited, without tags or fusion partners. Where a name states a change or a piece, a line headed by the entry shows the natural chain unless it says otherwise.
UniProt Q14145: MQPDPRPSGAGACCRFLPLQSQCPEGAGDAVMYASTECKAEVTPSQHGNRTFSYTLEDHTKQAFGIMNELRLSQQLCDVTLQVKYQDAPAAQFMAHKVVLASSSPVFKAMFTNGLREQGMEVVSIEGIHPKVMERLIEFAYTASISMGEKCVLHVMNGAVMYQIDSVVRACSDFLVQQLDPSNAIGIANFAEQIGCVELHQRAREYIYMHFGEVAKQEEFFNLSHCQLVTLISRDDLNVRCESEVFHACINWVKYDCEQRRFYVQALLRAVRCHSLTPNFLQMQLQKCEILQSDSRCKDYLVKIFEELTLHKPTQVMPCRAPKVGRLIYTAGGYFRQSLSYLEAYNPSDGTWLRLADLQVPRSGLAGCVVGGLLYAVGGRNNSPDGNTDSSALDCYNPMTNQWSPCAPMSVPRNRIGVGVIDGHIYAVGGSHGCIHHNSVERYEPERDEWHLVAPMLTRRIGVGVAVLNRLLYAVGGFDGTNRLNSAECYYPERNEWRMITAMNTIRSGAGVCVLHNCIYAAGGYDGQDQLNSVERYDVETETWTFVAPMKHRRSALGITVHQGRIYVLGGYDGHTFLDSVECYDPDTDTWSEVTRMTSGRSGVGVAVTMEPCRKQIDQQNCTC
UniProt P48436: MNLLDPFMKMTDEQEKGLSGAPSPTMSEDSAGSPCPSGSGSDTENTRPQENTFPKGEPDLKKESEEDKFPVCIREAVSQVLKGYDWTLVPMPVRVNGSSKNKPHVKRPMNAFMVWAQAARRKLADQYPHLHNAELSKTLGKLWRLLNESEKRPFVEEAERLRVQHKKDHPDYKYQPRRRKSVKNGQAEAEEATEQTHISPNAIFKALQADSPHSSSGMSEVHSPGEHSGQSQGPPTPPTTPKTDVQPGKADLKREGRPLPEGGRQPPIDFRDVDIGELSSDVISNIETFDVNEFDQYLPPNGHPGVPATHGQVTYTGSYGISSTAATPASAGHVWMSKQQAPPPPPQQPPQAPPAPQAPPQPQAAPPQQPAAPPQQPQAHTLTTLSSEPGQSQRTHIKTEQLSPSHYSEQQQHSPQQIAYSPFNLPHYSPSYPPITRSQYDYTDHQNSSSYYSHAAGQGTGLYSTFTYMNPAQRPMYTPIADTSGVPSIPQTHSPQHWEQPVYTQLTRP

Experiment [1] deals with endogenous KEAP1 (human (endogenous in Huh7, H1299)) (UniProt Q14145). The experiment in a line: co-IP; H1299 cells with or without etoposide (20 uM) treatment.
The target is the same in experiment [2]. The experiment can be described thus: co-IP; endogenous proteins in Huh7 and A549 (KEAP1 mutant) cell lysates; 20 uM MG132 for 6 h before harvesting.
Experiment [3] deals with HA-tagged full-length KEAP1 (HA-KEAP1), wild type (human) (UniProt Q14145). The experiment can be described thus: co-IP; HEK293T cells; with or without γ protein phosphatase treatment for 1 h at 37 °C prior to HA-KEAP1 IP and His-SOX9 immunoblot.
The target of experiment [4] is KEAP1 (tag not told for these experiments) (human) (UniProt Q14145). The experiment can be described thus: co-IP; HEK293T cells expressing Flag-tagged WT SOX9, truncated SOX9 mutants or SOX9 degron deletion mutants.
The target in experiment [5] is HA-tagged full-length KEAP1 (HA-KEAP1), wild type (human) (UniProt Q14145). The experiment in a line: co-IP; HA-KEAP1 full length or truncation mutants coexpressed with Flag-SOX9 in 293T cells; precipitated with HA antibody, Flag-SOX9 detected with Flag antibody; 20 uM MG132 for 6 h.
For experiment [6], the target named is SOX9 (HEK293T cells; tag not told for these experiments) (UniProt P48436). The experiment can be described thus: co-IP; SOX9 immunoprecipitates from HEK293T cells expressing HA-tagged CUL3 adaptor constructs, immunoblotted; 20 uM MG132 for 6 h before harvesting.
Experiment [7] addresses KEAP1 (tag not told for these experiments) (human) (UniProt Q14145). The experiment can be described thus: co-IP; HEK293T cells with or without ectopic CKIγ1 expression.
The target of experiment [8] is Flag-KEAP1 E611D (lung carcinoma-associated mutant) (human) (UniProt Q14145). The experiment can be described thus: co-IP; HEK293T cells expressing Flag-tagged WT KEAP1 or lung carcinoma-associated KEAP1 mutants.
Experiment [9] deals with Flag-KEAP1 G603W (lung carcinoma-associated mutant) (human) (UniProt Q14145). The description is as above.
For experiment [10], the target named is Flag-KEAP1 R204P (lung carcinoma-associated mutant) (human) (UniProt Q14145). Described as above.
The target of experiment [11] is Flag-KEAP1 W497L (lung carcinoma-associated mutant) (human) (UniProt Q14145). The experiment is described as above.
In experiment [12] the target is Flag-tagged wild-type KEAP1 (Flag-KEAP1) (human) (UniProt Q14145). The experiment is described as above.
The target in experiment [13] is KEAP1 (tag not told for these experiments) (human) (UniProt Q14145). The experiment can be described thus: co-IP; exogenous KEAP1, with or without etoposide treatment (Figure S6D; cells and tags not shown).
Experiment [14] addresses HA-KEAP1 R470C (cancer-associated "superbinder" mutant) (human) (UniProt Q14145). The experiment can be described thus: co-IP; HEK293T cells expressing HA-tagged WT KEAP1 or cancer-associated KEAP1 mutants; 20 uM MG132 for 6 h before harvesting.

Results are given in words; binding and its absence hold for the method and conditions named. In cells and extracts the contact can be indirect. Some binding calls cover weakened binding; strength is not graded here. For part of these data: Sequences can lack the tags named with a protein.

For the molecule “endogenous SOX9 (from UniProt P48436 1-509)”, the binding entry in experiment [1] and in [2] was “binds” throughout.
His-SOX9 (from UniProt P48436 1-509): in experiment [3], the binding result is “binds”.
As to “Flag-tagged SOX9 (Flag-SOX9), wild type (from UniProt P48436 1-509)”, the binding entry in experiment [4] and in [5] was “binds” throughout.
“HA-tagged full-length KEAP1 (HA-KEAP1), wild type (from UniProt Q14145 1-624)”: in experiment [6], the binding result is given as “binds”.
On to “SOX9 (HEK293T cells; tag not told for these experiments) (from UniProt P48436 1-509)”, for which the binding entry in [7] is “binds”; in experiment [8], “binds weakly”; in [9], “binds weakly”; in experiment [10], “binds weakly”; in experiment [11], “binds weakly”; in experiment [12] it was “binds”. Moreover, the binding result in experiment [13] and in experiment [14] was “binds” in each case.

B1: HA-tagged KLHL3 (protein, UniProt Q9UH77 1-587)
chain: MEGESVKLSSQTLIQAGDDEKNQRTITVNPAHMGKAFKVMNELRSKQLLCDVMIVAEDVEIEAHRVVLAACSPYFCAMFTGDMSESKAKKIEIKDVDGQTLSKLIDYIYTAEIEVTEENVQVLLPAASLLQLMDVRQNCCDFLQSQLHPTNCLGIRAFADVHTCTDLLQQANAYAEQHFPEVMLGEEFLSLSLDQVCSLISSDKLTVSSEEKVFEAVISWINYEKETRLEHMAKLMEHVRLPLLPRDYLVQTVEEEALIKNNNTCKDFLIEAMKYHLLPLDQRLLIKNPRTKPRTPVSLPKVMIVVGGQAPKAIRSVECYDFEEDRWDQIAELPSRRCRAGVVFMAGHVYAVGGFNGSLRVRTVDVYDGVKDQWTSIASMQERRSTLGAAVLNDLLYAVGGFDGSTGLASVEAYSYKTNEWFFVAPMNTRRSSVGVGVVEGKLYAVGGYDGASRQCLSTVEQYNPATNEWIYVADMSTRRSGAGVGVLSGQLYATGGHDGPLVRKSVEVYDPGTNTWKQVADMNMCRRNAGVCAVNGLLYVVGGDDGSCNLASVEYYNPVTDKWTLLPTNMSTGRSYAGVAVIHKSL
B1: the binding entry in [6] is given as “binds”.
